According to article doi:10.1101/155614:

Target: T1, mature GDF8 (growth/differentiation factor 8, myostatin), unbound mature ligand (UniProt O14793)
T1 sequence: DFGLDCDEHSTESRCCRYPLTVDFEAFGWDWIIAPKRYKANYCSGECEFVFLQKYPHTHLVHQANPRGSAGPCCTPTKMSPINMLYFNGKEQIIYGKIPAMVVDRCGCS
Experiment: SEC

binding: binds
Substance: GDF8 prodomain, mammalian derived (domain or fragment)

Results are given in words; binding and its absence hold for the method and conditions named. Binding calls can cover weak binding; strength is not graded here.
